Test results published in the supplement of paper PMC5949888.
Most values lie at the floor of the assay. Slopes are relative: functional sequences can read slightly below zero.

The substances below were run on Saccharomyces cerevisiae PS128 hsf1 delta, HSF1(1-493) fusion (assay: growth estimate (transactivation domain function in HSF1 fusion, heat-shock survival) (a.u. (slope of normalised read count over time)); higher = stronger growth at 37°C, i.e. more transactivation activity). Conditions: library: random library.
Procedure: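 Random 60-nt DNA library encoding peptides of up to 20 aa, fused to the C-terminus of yeast HSF1 residues 1-493 (C-terminal TAD deleted) and expressed from the native HSF1 promoter on a CEN plasmid in hsf1-deleted S. cerevisiae PS128. Cells were selected at 37°C on -trp 5-FOA plates for 0, 2, 4, 6 and 8 days and amplicons were sequenced. Growth estimate is the slope of a robust linear fit of total-sum-normalised read counts (normalised to the first time point) over time, using at least 2 replicates. Sequences are classed functional (TAD activity) above a threshold of -0.13, set from stop-codon control sequences.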
Substance GSMF has a growth estimate of less than -0.25.
Substance PLDGDSQIELYDT has a growth estimate of less than -0.25.
RGMTLGVLTRYYDVR showed a growth estimate of less than -0.25.
Substance YEEGRCRAKRWYKLASWPSS has a growth estimate of less than -0.25.
In the case of VSSPTGIERPVYPVLGFIMH, the growth estimate was less than -0.25.
LVDSKLPYKSIIYRHDCNQS was tested, and the growth estimate was less than -0.25.
Work on GYDA yielded a growth estimate of less than -0.25.
For SILGPRVMTFRMGLRHIGVL, the growth estimate was less than -0.25.
Substance SQRSVCALIKLLTADAKSME has a growth estimate of less than -0.25.
For MASLV, the growth estimate was less than -0.25.
In the case of WSNGEALQWRNVRGRSVHDY, the growth estimate was less than -0.25.
In the case of CGHRDMGRCTAGAVLNVEQH, the growth estimate was less than -0.25.
Work on KPAVQAARGANSWMAPCYRC yielded a growth estimate of less than -0.25.
RLYSSHWVSRALWCRCPHPE showed a growth estimate of less than -0.25.
VVT showed a growth estimate of less than -0.25.
ALRWQLQMWADFTWPGLNKA was tested, and the growth estimate was less than -0.25.
Work on VCHFD yielded a growth estimate of less than -0.25.
Work on GMPERVRGVRGVDSETTRKR yielded a growth estimate of less than -0.25.
With IHQGLREKHVQVRAAILCGR the growth estimate was less than -0.25.
TSDPVPAELPLPGGAAWFID was tested, and the growth estimate was less than -0.25.
In the case of TLSKGLKIYLT, the growth estimate was less than -0.25.
LGQIIWYGCSHRARIFSRQR gave a growth estimate of less than -0.25.
Work on QPIYGTALKPRT yielded a growth estimate of less than -0.25.
For VPSWDPQTREVGW, the growth estimate was less than -0.25.
MQESVHIETFICEEL showed a growth estimate of less than -0.25.
CQAHD showed a growth estimate of less than -0.25.
Substance FLQIVKRERHDGKMNFSRID has a growth estimate of less than -0.25.
With CKVQASFQISARPGLRHLTV the growth estimate was less than -0.25.
For PLYINQGDCLIDNRTCSERS, the growth estimate was less than -0.25.
In the case of RASHAGPKRCVISKHELVRS, the growth estimate was less than -0.25.
LPVCLGKRGRPWSIAS gave a growth estimate of less than -0.25.
AALNKSHR was tested, and the growth estimate was less than -0.25.
PLLLWQQQCRITVPSTTEMG showed a growth estimate of less than -0.25.
HAVLRGERSELPQEVRYARR gave a growth estimate of less than -0.25.
Substance LKSLIVKRRQFNPSRADRPV has a growth estimate of less than -0.25.
Substance ADALDSSCPVDLGNICIWEP has a growth estimate of -0.183.
With CSVYQQAEARWHVGC the growth estimate was less than -0.25.
LGMSCFMGATQR was tested, and the growth estimate was less than -0.25.
For AWDVTHQEDVGVAMVAPLDN, the growth estimate was less than -0.25.
Work on SVTLLPLYALCSMLPGYYGE yielded a growth estimate of less than -0.25.
PLLGKKTRTTTTYQDRYGRG was tested, and the growth estimate was less than -0.25.
For RRLLKVLT, the growth estimate was less than -0.25.
In the case of PELRAATPPYYGPLDSESRA, the growth estimate was less than -0.25.
CGTSTQFFVSKNLLVRVMRR showed a growth estimate of less than -0.25.
In the case of GSIPFAAGIRHHPFRNEGMV, the growth estimate was less than -0.25.
Work on DQFQR yielded a growth estimate of less than -0.25.
Substance PVVRF has a growth estimate of less than -0.25.
GSVHLCPGGRRYV showed a growth estimate of less than -0.25.
For PKGLTLPLGDLVGSGQILHP, the growth estimate was less than -0.253.
ITKSAVS gave a growth estimate of less than -0.25.
For TVNGRRMVASYG, the growth estimate was less than -0.25.
Work on LCLHPPRQRGLRSMLRAAGK yielded a growth estimate of less than -0.25.
With SAEWAQGGP the growth estimate was less than -0.25.
SKETMLIWGASARSRISFRV showed a growth estimate of less than -0.25.
GGILPGVQLIGEEGRGIYRP was tested, and the growth estimate was less than -0.25.
PVFDRKIWSRFNYIGEELSA gave a growth estimate of less than -0.25.
With LATTPGAGPLVLDVLDT the growth estimate was less than -0.25.
TDGSPSGFANTVGVEGLVFS showed a growth estimate of less than -0.25.
Work on AIKAMSGAWWSLPYCSLPKR yielded a growth estimate of less than -0.25.
Substance SEPHSELLDILSMQIED has a growth estimate of less than -0.25.
Substance VYPSR has a growth estimate of less than -0.25.
PQPICMDQHNSREKSWVILA gave a growth estimate of less than -0.25.
In the case of DRRQGRDLLNAVWKVKLIAE, the growth estimate was less than -0.25.
Work on RAWNRRLSDVRRLK yielded a growth estimate of less than -0.25.
With GTLISSL the growth estimate was less than -0.25.
VTRDLPRMFQVFVR showed a growth estimate of less than -0.25.
Substance GQRRRRRSFTTPPSTPIGI has a growth estimate of less than -0.25.
Work on RGGRLKSAGLERSSTVDLPM yielded a growth estimate of less than -0.25.
EKVRI showed a growth estimate of less than -0.25.
VRSTRGLVACLCTVSTPVAG showed a growth estimate of less than -0.25.
QVGTNLQPCYNFIDLPLQVH was tested, and the growth estimate was less than -0.25.
RRL showed a growth estimate of less than -0.25.
Substance IRSH has a growth estimate of less than -0.25.
VAREPRVGQQSASPSQSFVA gave a growth estimate of less than -0.25.
Substance SCVTGSNFPYSSRVGLHTSF has a growth estimate of -0.246.
SPHRPSIHLRSKKLVYGTGD gave a growth estimate of less than -0.25.
KRQQSLTAPPSCIMPDLDVP gave a growth estimate of less than -0.25.
AEICDIIRYSSRRPPPGADL showed a growth estimate of less than -0.25.
RIKRNDIVTDPPFVMEPNRW was tested, and the growth estimate was less than -0.25.
With LNRR the growth estimate was less than -0.25.
Substance CAGNEHKRGKDPPNEW has a growth estimate of less than -0.25.
For SLIELPRGRPSPTS, the growth estimate was less than -0.25.
With GILRGAGQIANGPMVVMAGQ the growth estimate was less than -0.25.
WLGED gave a growth estimate of less than -0.25.
In the case of LTFRYTLPPNGVRGIPGKSE, the growth estimate was less than -0.25.
DGSSYGD gave a growth estimate of less than -0.25.
For ARRHVQDYANVLGGGGTESA, the growth estimate was less than -0.25.
In the case of GRHDLVSCEV, the growth estimate was less than -0.25.
LFVKSLQSDPVECGCVRV showed a growth estimate of less than -0.25.
With VILEATRVNVQARGVWRRWL the growth estimate was less than -0.25.
For HTQVSERVYVGGPRRTSETD, the growth estimate was less than -0.25.
In the case of CLSRRKALLRLKHCQSPHCV, the growth estimate was less than -0.25.
For VMGSRRVAIHNKARPMHVPT, the growth estimate was less than -0.25.
GVSSEGATSPRVTALFYLCH showed a growth estimate of less than -0.25.
